Measured values published in PubChem BioAssay AID445 (National Center for Advancing Translational Sciences (NCATS), 2006).
This is one part of the list. Further columns of the screen follow, without active or inactive calls. Most of these compounds were active or inconclusive in the main read-out, so they are no random draw. The note in brackets gives the kind of curve behind each potency; many fits are weak.

assay: IkB Signaling; conditions: ABC-DLBCL IkBa-CBG/CBR dual luciferase ratio (green luciferase fused to IkBa over red control in OCI-Ly3 lymphoma cells), 4 h; measured here: control luc red channel unless noted
Method in brief: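 Curves were fitted separately to fusion (green), unfused (red) and ratio luminescence, then classed by r2, magnitude and activity. Cells: OCI-Ly3, 4 h compound plus doxycycline at 37C; 10 uM MG-132 defined full response.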

Structure (SMILES) | AC50
O=C(c1ccc2c(c1)N(Cc1ccc(Cl)cc1)C(=O)c1ccccc1S2(=O)=O)N1CCC(Cc2ccccc2)CC1 | 10 µM [falling, partial curve]
O=C(c1ccc2c(c1)N(Cc1ccc(F)cc1)C(=O)c1ccccc1S2(=O)=O)N1CCCCCC1 | 15.8 µM [falling, partial curve]
CCOc1ccc(NC(=O)CSC2=Nc3ccccc3C3=NC(CC(=O)NCc4ccccc4OC)C(=O)N23)cc1 (configuration not stated) | 6.31 µM [rising, partial curve]
CCn1c(=O)c(C(=O)Nc2cccnc2)c(O)c2ccccc21 | 1.26 µM [falling, full curve, poor fit]
Cc1oc(-c2ccccc2F)nc1CS(=O)(=O)CC(=O)N1CCN(c2ccc(Cl)cc2)CC1 | 25.1 µM [falling, partial curve]
COc1ccc(CCn2c(=O)c3ccccc3n(CC(=O)Nc3cccc(C)c3)c2=O)cc1OC | 12.6 µM [falling, partial curve]
CCN1c2ccccc2NC2C1C(C(C)=O)C(=O)N2c1ccc(Cl)cc1 (configuration not stated) | 6.31 µM [falling, partial curve]
Cc1ccc(C)c(S(=O)(=O)c2cn(C)c3cc(F)c(F)cc3c2=O)c1 | 10 µM [falling, partial curve]
COC(=O)c1sc(-c2ccccc2)cc1NC(=O)Nc1ccccc1Cl | 25.1 µM [falling, partial curve]
CCOC(=O)N1CCc2c(sc3c2c(=O)n(Cc2ccccc2)c(=O)n3CC(=O)Nc2cccc(C)c2)C1 | 15.8 µM [falling, single point]
CCCCC(=O)Nc1cc(-c2nc3cccnc3s2)ccc1C | 25.1 µM [falling, single point]
CN(C)S(=O)(=O)c1ccc(C(=O)Nc2c(C(=O)Nc3ccc(F)cc3)oc3ccccc23)cc1 | 25.1 µM [falling, single point]
CCOc1ccc(NC(=O)CSc2ncnc3c2sc2ccccc23)cc1 | 20 µM [rising, single point]
COc1ccccc1C(=O)Nc1c(C(=O)N2CCN(c3ccccc3F)CC2)oc2ccccc12 | 31.6 µM [falling, single point]
Cc1ccc(CNC(=O)c2ccc3c(c2)NC(=O)C(CS(=O)(=O)Cc2ccc(F)cc2)N3)cc1 (configuration not stated) | 20 µM [falling, single point]
Cc1ccc(NC(=O)Cn2c(=O)n(Cc3ccco3)c(=N)c3c4c(sc32)COC(C)(C)C4)cc1 | 12.6 µM [falling, partial curve]
CC(C)(C)c1ccc(C(=O)Nc2ccc(C(=O)OCc3cc(=O)n4ccsc4n3)cc2)cc1 | 7.94 µM [falling, full curve]
Cc1onc(-c2ccccc2)c1C(=O)Nc1sc2c(c1C(N)=O)CCC2 | 31.6 µM [falling, single point]
Cc1cc(NC(=O)c2cc(-c3cccnc3)nc3c(C)c(C)ccc23)no1 | 12.6 µM [falling, partial curve]
Cc1cccc(C2C=C(c3ccc(F)cc3)Nc3nc4ccccc4n32)c1 (configuration not stated) | 20 µM [falling, single point]
Cc1ccc(NC(=O)c2cccc(OCc3c(C)noc3C)c2)c(C)c1 | 39.8 µM [falling, single point]

No new results follow: entries from further up.
Structure (SMILES) | AC50
O=C(c1ccc2c(c1)N(Cc1ccc(Cl)cc1)C(=O)c1ccccc1S2(=O)=O)N1CCC(Cc2ccccc2)CC1 | 10 µM [falling, partial curve]
O=C(c1ccc2c(c1)N(Cc1ccc(F)cc1)C(=O)c1ccccc1S2(=O)=O)N1CCCCCC1 | 15.8 µM [falling, partial curve]

Continuation:

Structure (SMILES) | AC50
CCOc1ccc(Cn2c(CNS(=O)(=O)c3ccc([N+](=O)[O-])cc3)nc3cccnc32)cc1 | 0.794 µM [rising, full curve]
COc1ccc(C(=O)NCCSc2c(C)[nH]c3ccccc23)cc1 | 12.6 µM [falling, partial curve]
Cc1ccc(NC(=O)Nc2nnc(SCC(=O)N3CCC(C)CC3)s2)cc1 | 15.8 µM [falling, partial curve]
COc1ccc(-n2cc(C(=O)NC(C)c3ccccc3)c3ccccc3c2=O)cc1 (configuration not stated) | 25.1 µM [falling, single point]
CCOC(=O)c1ccc(-c2c(C(=O)OCC)oc3cc(O)c(CC)cc3c2=O)o1 | 15.8 µM [falling, partial curve]
O=C(NC1CCCC1)c1ccc(CSc2nc3ccncc3n2Cc2ccc(F)cc2)cc1 | 1.26 µM [falling, full curve]
COc1ccc(C(=O)NCCn2cc(SCC(=O)NCc3ccco3)c3ccccc32)cc1 | 15.8 µM [falling, partial curve]
CCN1CCN(c2cc(C)c3cc(NC(=O)/C=C/c4cccc(Cl)c4)ccc3n2)CC1 | 25.1 µM [falling, partial curve]
O=C(Nc1ccc(NC(=O)c2ccco2)nc1)c1ccccn1 | 12.6 µM [falling, partial curve]
Cc1ccc(NC(=O)Cn2cc(S(=O)(=O)N3CCCC3)c(S(=O)(=O)N3CCCC3)c2)cc1C | 31.6 µM [falling, single point]
CCOc1ccc(NC(=O)c2ccc(-c3cccc(Cl)c3C)o2)cc1 | 3.98 µM [falling, partial curve]
COc1cccc(CNC(=O)NCc2noc3ccc(C)cc23)c1 | 25.1 µM [falling, single point]
Cc1occc1-c1nnc(SCC(=O)Nc2ccccc2)n1Cc1ccccc1 | 15.8 µM [falling, partial curve]
COc1ccccc1-c1cc(C(F)(F)F)nc(S(=O)(=O)CCCC(=O)Nc2ccc(F)c(Cl)c2)n1 | 3.16 µM [falling, partial curve]
COc1ccc(C(=O)N2CCC(c3c[nH]c4ccccc34)(c3c[nH]c4ccccc34)CC2)cc1 | 12.6 µM [falling, partial curve]
COc1ccccc1CNC(=O)c1oc2c(c1C)-c1nn(Cc3ccc(Cl)cc3)cc1CC2 | 12.6 µM [falling, partial curve]
Cc1nc2nc(SCC(=O)NCc3ccccc3)nn2c(C)c1Cc1ccccc1 | 6.31 µM [falling, partial curve]
CC(C)CC(=O)Nc1ccc(Cl)c(-c2nc3ccccc3[nH]2)c1 | 25.1 µM [falling, partial curve]
COc1ccc(OC)c(CNC(=O)CN2C(=O)CCn3nc(-c4cn(C)c5ccccc45)cc32)c1 | 15.8 µM [falling, partial curve]
N#Cc1ccc(NS(=O)(=O)c2ccc(-c3cnc(C4CC4)o3)cc2)cc1 | 25.1 µM [falling, partial curve]
CC1(C)Cc2cccc(OCC(=O)Nc3nccs3)c2O1 | 25.1 µM [falling, single point]

Structure (SMILES) | AC50
COc1ccccc1NC(=O)CSC1=NC(=O)C(NC(C)=O)C(=O)N1 (configuration not stated) | 3.16 µM [falling, full curve]
Cc1ccc(C)n1-c1nnc(N2CCCC(C(=O)NCc3ccccc3)C2)s1 (configuration not stated) | 20 µM [falling, partial curve]
Cc1ccc(NC(=O)CCc2c(C)nc3nc(C)nn3c2C)c(Cl)c1 | 25.1 µM [falling, partial curve]
CNC(=O)c1ccc(Nc2nnc(-c3ccc(C)c(S(=O)(=O)N4CCOCC4)c3)c3ccccc23)cc1 | 12.6 µM [falling, partial curve]
COc1ccc(C2(O)CC3CCC(C2)N3c2cc(C)nc(-c3ccccc3)n2)cc1 (configuration not stated) | 12.6 µM [falling, partial curve]
Cc1ccc(N2CC(NC(=O)CCc3ccccc3)CC2=O)cc1 (configuration not stated) | 0.794 µM [falling, partial curve]
COc1cccc(CSc2nc3n(n2)C(c2cccnc2)C(C(=O)Nc2ccccc2C)=C(C)N3)c1 (configuration not stated) | 39.8 µM [falling, single point]
COc1ccccc1NC(=O)CN(Cc1ccco1)C(=O)c1cccs1 | 10 µM [falling, partial curve]
Cc1nc2cc(C(=O)O)ccc2n1-c1ccc(C(C)C)cc1 | 3.16 µM [rising, partial curve]
Cc1cccc(N2CCN(C(=O)Cn3c(=O)c4cccn4c4ccc(F)cc43)CC2)c1C | 25.1 µM [falling, single point]
O=c1cc(-c2ccccc2)[nH]c2nc3ccccc3n12 | 0.002 µM [falling, full curve]
COc1ccccc1CNC(=O)CCC1N=C2c3ccccc3N=C(SCC(=O)NCCc3ccc(OC)c(OC)c3)N2C1=O (configuration not stated) | 0.631 µM [rising, full curve]
CCc1ccc(-c2cc(C)no2)cc1S(=O)(=O)Nc1ccc(Cl)cc1 | 25.1 µM [falling, single point]
COc1ccc(-c2noc(-c3ccc(NC(C)c4ccccc4)c([N+](=O)[O-])c3)n2)cc1OC (configuration not stated) | 3.16 µM [falling, full curve]
CCOc1ccccc1CN(CCc1ccc2c(c1)OCO2)Cc1cccc(OC)c1OC | 25.1 µM [falling, single point]
Cc1ccc(N(Cc2cccs2)C(=O)COc2ccccc2[N+](=O)[O-])cc1 | 12.6 µM [falling, partial curve]
Cc1cccc(-c2nc(Cn3c(SCc4cc(C)ccc4C)nc4ccncc43)c(C)o2)c1 | 10 µM [falling, partial curve]
COc1ccc(CCNC(=O)c2nn(C)c3c2CSc2ccccc2-3)cc1OC | 25.1 µM [falling, single point]
CCC(SC1=Nc2ccccc2C2=NC(CC(C)C)C(=O)N12)C(=O)Nc1ccc2c(c1)OCO2 (configuration not stated) | 12.6 µM [falling, partial curve]
Nc1nnc(SCC(=O)c2ccccc2)s1 | 15.8 µM [falling, single point]

Arranged by molar mass (largest number first): some entries from above.
Structure (SMILES) | AC50
COc1cccc(CSc2nc3n(n2)C(c2cccnc2)C(C(=O)Nc2ccccc2C)=C(C)N3)c1 (configuration not stated) | 39.8 µM [falling, single point]
CCOc1ccccc1CN(CCc1ccc2c(c1)OCO2)Cc1cccc(OC)c1OC | 25.1 µM [falling, single point]
COc1ccccc1NC(=O)CN(Cc1ccco1)C(=O)c1cccs1 | 10 µM [falling, partial curve]
